Laboratory results: article doi:10.1101/276204 (bioRxiv, 2018)

Biological target: T1, Bub1 kinase domain (Bub1^KinD, residues 725-1085) (human) (UniProt O43683)
T1 sequence: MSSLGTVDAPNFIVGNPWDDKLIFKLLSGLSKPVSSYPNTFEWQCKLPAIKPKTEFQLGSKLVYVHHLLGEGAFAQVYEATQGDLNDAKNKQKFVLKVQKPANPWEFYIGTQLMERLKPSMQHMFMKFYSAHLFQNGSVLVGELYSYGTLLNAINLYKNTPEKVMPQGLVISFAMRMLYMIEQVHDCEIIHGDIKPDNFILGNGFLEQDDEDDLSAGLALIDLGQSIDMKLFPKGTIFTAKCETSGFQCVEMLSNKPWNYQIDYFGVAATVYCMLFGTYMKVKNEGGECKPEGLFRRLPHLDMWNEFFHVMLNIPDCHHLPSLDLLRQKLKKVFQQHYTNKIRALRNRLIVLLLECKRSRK
Assay: SEC

## mCherry-CENP-F^2866-2990 (Homo sapiens) (domain or fragment)
  binding: binds

## mCherry-CENP-F^2922-2990 (Homo sapiens) (domain or fragment)
  binding: binds

No constants are given. Whether binding was seen depends on the method and setting. A result given as binding can be weak or reduced; the word gives no strength.
